At least one peptide structure holds a part that was inferred or is arguable (an end, a ring closure or a residue). Residues, ends and D or L forms follow the SMILES beside them. *: point of attachment. Bn = c1ccc(C*)cc1
System: alpha-helical S-protein
Experiment: Intracranial self-stimulation (bar pressing) in rats given alpha-helical S-protein
Type: in vivo
Details: alpha-helical S-protein intercisternally, polypeptide 0.2 mg/kg intramuscularly

CC(=O)N[C@H](C(=O)N[C@H](C(=O)N[C@@H](CC(C)C)C(N)=O)C(C)C)[C@@H](C)OCc1ccccc1 [N-α-Acetyl-O-benzyl-threonylvalylleucinamide] (Ac-Thr(Bn)-Val-Leu-NH2)
Bar Presses Restoration %: toxic

Reference: patent publication US4146614A, “Threonyl-valyline leucine containing peptides and pharmaceutical compositions” (State of Michigan, priority 1977, dated 1979)
